PubChem BioAssay AID602196, INSERM – 2012

Purpose: 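Knock-downs that protect lung cancer cells from cisplatin or sensitise them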
System: human A549 lung cancer cells
Knock-down reagent: siRNA pair against human genes
Duration: 48 h transfection before cisplatin; time from cisplatin to read-out not stated
Challenge: cisplatin at a dose killing half of control-siRNA cells; exact dose and duration not given
Measurement: 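Shift in cisplatin death relative to control siRNA, from -50 (all cells die) to +50 (no cells die); siRNAs harmful on their own scored 0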
Reading the numbers: two-siRNA summed score (-2 to +2): higher = both siRNAs protect from cisplatin killing; -2 means both sensitise
Active means: 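Each siRNA scores 0 if harmful alone by LDH or WST-1, otherwise +1 if it reduces and -1 if it increases cisplatin killing; a gene is active when both siRNAs agree (sum +2 or -2)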
Calls: active = both siRNAs shift cisplatin killing the same way; inactive = no consistent shift, or siRNA harmful alone
The deposit covers about 23,000 reagents; this is a random part of them. In the full data, 455 (2%) got an active call. 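Active includes both protection and sensitisation; some change values fall well beyond the stated -50 to +50 range.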 A number with no mark means an inactive call. Further read-outs or replicates are left out here. Reagent sequences are not shown. The record does not give: the amount of reagent.

SCN4A | two-siRNA summed score (-2 to +2) = 0
ADGRF3 | two-siRNA summed score (-2 to +2) = 0
ACTL6A | two-siRNA summed score (-2 to +2) = 1
EPCIP | two-siRNA summed score (-2 to +2) = -1
THAP5 | two-siRNA summed score (-2 to +2) = 0
SLC25A5 | two-siRNA summed score (-2 to +2) = 0
DKFZp434P0216 | two-siRNA summed score (-2 to +2) = 0
GMPR2 | two-siRNA summed score (-2 to +2) = -1
PRR14 | two-siRNA summed score (-2 to +2) = 0
CARD18 | two-siRNA summed score (-2 to +2) = 0
ADRB3 | two-siRNA summed score (-2 to +2) = 0
RAB32 | two-siRNA summed score (-2 to +2) = 0
